The supplement of paper PMC8256030
“And” between values parts separate entries of the source, which are not always exact repeats. Equal entries are not always repeated. This is one part of the list. This data set is noisy: repeats of one test often differ as much as different tests do.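 HEK293T cells were given each compound shortly before transfection with a reporter in which red mCherry is followed by the SARS-CoV-2 frameshift element and then GFP in the −1 frame, so GFP appears only after frameshifting.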

System: HEK293T
Assay: percent viability (nuclei count) relative to control; higher = more viable cells
Conditions: 10 µM; 24 h

| SMILES | percent viability |
| --- | --- |
| CN(C)S(=O)(=O)c1ccc2c(c1)N(CCCN1CCC(CCO)CC1)c1ccccc1S2 [pipotiazine] | 172% |
| CN1C(=O)CC[C@H]1c1cccnc1 [cotinine] | 120% |
| Oc1ccc(Nc2ccnc3cc(Cl)ccc23)cc1CN1CCCC1 [amopyroquine] | 565% |
| CCCCC(=O)O[C@]1(C(=O)CO)CC[C@H]2[C@@H]3CCC4=CC(=O)CC[C@]4(C)[C@H]3[C@@H](O)C[C@@]21C | 223% |
| CN1[C@@H]2CC[C@H]1C[C@@H](OC(=O)c1c[nH]c3ccccc13)C2 [Tropisetron] | 185% |
| CC(C(=O)O)c1cccc(C(=O)c2ccccc2)c1 (configuration not stated) [ketoprofen] | 258% and 335% |
| CCC(=O)Oc1ccc2c(c1)CC[C@@H]1[C@@H]2CC[C@]2(C)[C@@H](OC(=O)CC)CC[C@@H]12 | 175% |
| NC[C@H]1O[C@H](O[C@H]2[C@H](O)[C@@H](O[C@H]3O[C@H](CO)[C@@H](O)[C@H](N)[C@H]3O)[C@H](N)C[C@@H]2N)[C@H](O)[C@@H](O)[C@@H]1O | 152% |
| Cc1cn([C@H]2C[C@H](N=[N+]=[N-])[C@@H](CO)O2)c(=O)[nH]c1=O [zidovudine] | 366% and 218% |
| NCCCCCC(=O)O | 358% |
| O=C(N/N=C/c1ccc([N+](=O)[O-])o1)c1ccc(O)cc1 | 305% |
| CC[C@H](c1ccc(O)cc1)[C@@H](CC)c1ccc(O)cc1 [hexestrol] | 282% and 153% |
| CC(C)C[C@H](NC(=O)[C@@H](Cc1c[nH]c2ccccc12)NC(=O)[C@H](Cc1ccc(O)cc1)NC(=O)[C@H](CO)NC(=O)[C@H](Cc1c[nH]c2ccccc12)NC(=O)[C@H](Cc1c[nH]cn1)NC(=O)[C@@H]1CCC(=O)N1)C(=O)N[C@@H](CCCNC(=N)N)C(=O)N1CCC[C@H]1C(=O)NCC(N)=O [Triptorelin] | 188% |
| CCC(C)(C)NCC(O)COc1ccccc1C#N (configuration not stated) [penirolol] | 298% |
| CN(C)CCC[C@@]1(c2ccc(F)cc2)OCc2cc(C#N)ccc21 [escitalopram] | 181% and 161% |
| NS(=O)(=O)c1cc2c(cc1Cl)N=C(CSCc1ccccc1)NS2(=O)=O | 219% |
| Cc1c(N(C)CS(=O)(=O)O)c(=O)n(-c2ccccc2)n1C [metamizole sodium] | 358% |
| O=C1NCCNC1c1cccs1 (configuration not stated) [tenilsetam] | 244% |
| CC(C)NCC(O)COc1cccc2ccccc12 (configuration not stated) [dibudinate] | 160% |
| COc1cc2nc(N3CCN(C(=O)C4CCCO4)CC3)nc(N)c2cc1OC (configuration not stated) [Terazosin] | 246% |
| COc1cc2nc(N(C)CCCNC(=O)C3CCCO3)nc(N)c2cc1OC (configuration not stated) [alfuzosin] | 162% and 323% |
| N#Cc1c(N(CC(=O)O)CC(=O)O)sc(C(=O)O)c1CC(=O)O [ranelic acid] | 349% |
| Cc1cccc(Nc2ccccc2C(=O)O)c1C [mefenamic acid] | 290% and 218% |
| Cc1c(O)c(=O)ccn1C [deferiprone] | 252% |
| CC[C@@]1(O)C(=O)OCc2c1cc1n(c2=O)Cc2cc3c(CN(C)C)c(O)ccc3nc2-1 [topotecan] | 47.6% |
| COc1cc2c(cc1OC)CC(=O)N(CCCN(C)C[C@H]1Cc3cc(OC)c(OC)cc31)CC2 [ivabradine] | 208% |
| Oc1cccc(O)c1 | 168% |

Part of the list above in order of molar mass, ascending.

| SMILES | percent viability |
| --- | --- |
| O=C1NCCNC1c1cccs1 (configuration not stated) [tenilsetam] | 244% |
| CCC(C)(C)NCC(O)COc1ccccc1C#N (configuration not stated) [penirolol] | 298% |
| CC[C@H](c1ccc(O)cc1)[C@@H](CC)c1ccc(O)cc1 [hexestrol] | 282% and 153% |
